Patent US20250283871A1, “COMPOSITIONS AND METHODS FOR MODULATING THE INTERACTION BETWEEN SS18-SSX FUSION ONCOPROTEIN AND NUCLEOSOMES” (Dana-Farber Cancer Institute, Inc., priority 2020, published 2025)

Tested on: BAF complex subunits and histone proteins
Assay: Mass spectrometry proteomics of purified HA-SS18 WT and HA-SS18-SSX1 complexes (Tables 5A-5E)
Parameters: species or system human
Conditions: for Total / Unique: HA-SS18SSX1_CHR_peptides; for Total: total peptides of the identified protein; for Unique: unique peptides of the identified protein
[1] = HA-SS18WT_CHR_peptides: HA-SS18 WT purification from nuclease-treated solubilized chromatin (CHR), HEK-293T, label = protein identified
[2] = HA-SS18SSX1 purification, NE (soluble nuclear extract) fraction, HEK-293T, peptides per identified protein
[3] = HA-SS18WT_CHR_peptides: protein identified in HA-SS18 WT BAF complex purification from nuclease-treated solubilized chromatin (CHR), HEK-293T
[4] = HA-SS18WT_NE_peptides: HA-SS18 WT complexes purified from nuclear extract (NE), HEK-293T, label = protein identified (Gene Symbol)
[5] = HA-SS18WT_NE_peptides: proteins co-purified with HA-SS18 WT from nuclear extract (NE), HEK-293T
[6] = HA-SS18SSX1_CHR_peptides: protein identified in the HA-SS18-SSX1 purification from solubilized chromatin (CHR), HEK-293T
[7] = HA-SS18SSX1_NE_peptides: protein co-purified with HA-SS18-SSX1 BAF complexes from soluble nuclear extract (NE), HEK-293T cells

B1: IMP4 (protein, UniProt Q96G21 1-291, looked up)
U3 small nucleolar …: MLRREARLRREYLYRKAREEAQRSAQERKERLRRALEENRLIPTELRREALALQGSLEFDDAGGEGVTSHVDDEYRWAGVEDPKVMITTSRDPSSRLKMFAKELKLVFPGAQRMNRGRHEVGALVRACKANGVTDLLVVHEHRGTPVGLIVSHLPFGPTAYFTLCNVVMRHDIPDLGTMSEAKPHLITHGFSSRLGKRVSDILRYLFPVPKDDSHRVITFANQDDYISFRHHVYKKTDHRNVELTEVGPRFELKLYMIRLGTLEQEATADVEWRWHPYTNTARKRVFLSTE
Total: 4 | Unique: 4 | Total (peptides) [1]: 3 | Unique (peptides) [1]: 3

B2: GATAD2A (protein, UniProt Q86YP4 1-633, looked up)
Transcriptional repressor …: MTEEACRTRSQKRALERDPTEDDVESKKIKMERGLLASDLNTDGDMRVTPEPGAGPTQGLLRATEATAMAMGRGEGLVGDGPVDMRTSHSDMKSERRPPSPDVIVLSDNEQPSSPRVNGLTTVALKETSTEALMKSSPEERERMIKQLKEELRLEEAKLVLLKKLRQSQIQKEATAQKPTGSVGSTVTTPPPLVRGTQNIPAGKPSLQTSSARMPGSVIPPPLVRGGQQASSKLGPQASSQVVMPPLVRGAQQIHSIRQHSSTGPPPLLLAPRASVPSVQIQGQRIIQQGLIRVANVPNTSLLVNIPQPTPASLKGTTATSAQANSTPTSVASVVTSAESPASRQAAAKLALRKQLEKTLLEIPPPKPPAPEMNFLPSAANNEFIYLVGLEEVVQNLLETQGRMSAATVLSREPYMCAQCKTDFTCRWREEKSGAIMCENCMTTNQKKALKVEHTSRLKAAFVKALQQEQEIEQRLLQQGTAPAQAKAEPTAAPHPVLKQVIKPRRKLAFRSGEARDWSNGAVLQASSQLSRGSATTPRGVLHTFSPSPKLQNSASATALVSRTGRHSERTVSAGKGSATSNWKKTPLSTGGTLAFVSPSLAVHKSSSAVDRQREYLLDMIPPRSIPQSATWK
Total: 4 | Unique: 4 | Total (peptides) [1]: 5 | Unique (peptides) [1]: 5

B3: C1QBP (protein, UniProt Q07021 74-282, looked up)
Complement component 1 Q …: LHTDGDKAFVDFLSDEIKEERKIQKHKTLPKMSGGWELELNGTEAKLVRKVAGEKITVTFNINNSIPPTFDGEEEPSQGQKVEEQEPELTSTPNFVVEVIKNDDGKKALVLDCHYPEDEVGQEDEAESDIFSIREVSFQSTGESEWKDTNYTLNTDSLDWALYDHLMDFLADRGVDNTFADELVELSTALEHQEYITFLEDLKSFVKSQ
Total: 4 | Unique: 4 | Total (total peptides) [2]: 3 | Unique (unique peptides) [2]: 3 | Total (total peptides) [3]: 1 | Unique (unique peptides) [3]: 1 | Total (peptides) [4]: 3 | Unique (peptides) [4]: 3

B4: MYO1B (protein, UniProt O43795 1-1136, looked up)
Unconventional myosin-Ib: MAKMEVKTSLLDNMIGVGDMVLLEPLNEETFINNLKKRFDHSEIYTYIGSVVISVNPYRSLPIYSPEKVEEYRNRNFYELSPHIFALSDEAYRSLRDQDKDQCILITGESGAGKTEASKLVMSYVAAVCGKGAEVNQVKEQLLQSNPVLEAFGNAKTVRNDNSSRFGKYMDIEFDFKGDPLGGVISNYLLEKSRVVKQPRGERNFHVFYQLLSGASEELLNKLKLERDFSRYNYLSLDSAKVNGVDDAANFRTVRNAMQIVGFMDHEAESVLAVVAAVLKLGNIEFKPESRVNGLDESKIKDKNELKEICELTGIDQSVLERAFSFRTVEAKQEKVSTTLNVAQAYYARDALAKNLYSRLFSWLVNRINESIKAQTKVRKKVMGVLDIYGFEIFEDNSFEQFIINYCNEKLQQIFIELTLKEEQEEYIREDIEWTHIDYFNNAIICDLIENNTNGILAMLDEECLRPGTVTDETFLEKLNQVCATHQHFESRMSKCSRFLNDTSLPHSCFRIQHYAGKVLYQVEGFVDKNNDLLYRDLSQAMWKASHALIKSLFPEGNPAKINLKRPPTAGSQFKASVATLMKNLQTKNPNYIRCIKPNDKKAAHIFNEALVCHQIRYLGLLENVRVRRAGYAFRQAYEPCLERYKMLCKQTWPHWKGPARSGVEVLFNELEIPVEEYSFGRSKIFIRNPRTLFKLEDLRKQRLEDLATLIQKIYRGWKCRTHFLLMKKSQIVIAAWYRRYAQQKRYQQTKSSALVIQSYIRGWKARKILRELKHQKRCKEAVTTIAAYWHGTQARRELRRLKEEARNKHAIAVIWAYWLGSKARRELKRLKEEARRKHAVAVIWAYWLGLKVRREYRKFFRANAGKKIYEFTLQRIVQKYFLEMKNKMPSLSPIDKNWPSRPYLFLDSTHKELKRIFHLWRCKKYRDQFTDQQKLIYEEKLEASELFKDKKALYPSSVGQPFQGAYLEINKNPKYKKLKDAIEEKIIIAEVVNKINRANGKSTSRIFLLTNNNLLLADQKSGQIKSEVPLVDVTKVSMSSQNDGFFAVHLKEGSEAASKGDFLFSSDHLIEMATKLYRTTLSQTKQKLNIEISDEFLVQFRQDKVCVKFIQGNQKNGSVPTCKRKNNRLLEVAVP
Total: 4 | Unique: 4 | Total (total peptides) [3]: 1 | Unique (unique peptides) [3]: 1 | Total (peptides) [4]: 11 | Unique (peptides) [4]: 11

B5: NOP9 (protein, UniProt Q86U38 1-636, looked up)
Nucleolar protein 9: MGQGPRSPHKVGRRFPAGGKRGRGAKGSGRPLPGRKRQPWPPPDGRSEPAPDSHPHLSPEALGYFRRALSALKEAPETGEERDLMVHNIMKEVETQALALSTNRTGSEMLQELLGFSPLKPLCRVWAALRSNLRTVACHRCGVHVLQSALLQLPRLLGSAAEEEEEEEEDGKDGPTETLEELVLGLAAEVCDDFLVYCGDTHGSFVVRTLLQVLGGTILESERARPRGSQSSEAQKTPAQECKPADFEVPETFLNRLQDLSSSFLKDIAVFITDKISSFCLQVALQVLHRKLPQFCAHLCNAVIGYLSTRGSSVDGSPLLLFLRDQTSSRLLEQVLLVLEPPRLQSLFEEHLQGQLQTLAAHPIANFPLQRLLDAVTTPELLSPVFEELSPVLEAVLAQGHPGVVIALVGACRRVGAYQAKVLQLLLEAFHCAEPSSRQVACVPLFATLMAYEVYYGLTEEEGAVPAEHQVAMAAARALGDVTVLGSLLLQHLLHFSTPGLVLRSLGALTGPQLLSLAQSPAGSHVLDAILTSPSVTRKLRRRVLQNLKGQYVALACSRHGSRVLDAIWSGAALRARKEIAAELGEQNQELIRDPFGHHVARNVALTTFLKRREAWEQQQGAVAKRRRALNSILED
Total: 4 | Unique: 4 | Total (total peptides) [3]: 2 | Unique (unique peptides) [3]: 2 | Total (peptides) [5]: 1 | Unique (peptides) [5]: 1

B6: ZNF512 (protein, UniProt Q96ME7 1-567, looked up)
Zinc finger protein 512: MSSRLGAVPATSGPTTFKQQRSTRIVGAKNSRTQCSIKDNSFQYTIPHDDSLSGSSSASSCEPVSDFPASFRKSTYWMKMRRIKPAATSHVEGSGGVSAKGKRKPRQEEDEDYREFPQKKHKLYGRKQRPKTQPNPKSQARRIRKEPPVYAAGSLEEQWYLEIVDKGSVSCPTCQAVGRKTIEGLKKHMENCKQEMFTCHHCGKQLRSLAGMKYHVMANHNSLPILKAGDEIDEPSERERLRTVLKRLGKLRCMRESCSSSFTSIMGYLYHVRKCGKGAAELEKMTLKCHHCGKPYRSKAGLAYHLRSEHGPISFFPESGQPECLKEMNLESKSGGRVQRRSAKIAVYHLQELASAELAKEWPKRKVLQDLVPDDRKLKYTRPGLPTFSQEVLHKWKTDIKKYHRIQCPNQGCEAVYSSVSGLKAHLGSCTLGNFVAGKYKCLLCQKEFVSESGVKYHINSVHAEDWFVVNPTTTKSFEKLMKIKQRQQEEEKRRQQHRSRRSLRRRQQPGIELPETELSLRVGKDQRRNNEELVVSASCKEPEQEPVPAQFQKVKPPKTNHKRGRK
Total: 4 | Unique: 4 | Total (peptides) [1]: 4 | Unique (peptides) [1]: 4

B7: SRSF9 (protein, UniProt Q13242 1-221, looked up)
Serine/arginine-rich splicing …: MSGWADERGGEGDGRIYVGNLPTDVREKDLEDLFYKYGRIREIELKNRHGLVPFAFVRFEDPRDAEDAIYGRNGYDYGQCRLRVEFPRTYGGRGGWPRGGRNGPPTRRSDFRVLVSGLPPSGSWQDLKDHMREAGDVCYADVQKDGVGMVEYLRKEDMEYALRKLDDTKFRSHEGETSYIRVYPERSTSYGYSRSRSGSRGRDSPYQSRGSPHYFSPFRPY
Total: 4 | Unique: 4 | Total (total peptides) [3]: 1 | Unique (unique peptides) [3]: 1

B8: THRAP3 (protein, UniProt Q9Y2W1 2-955, looked up)
Thyroid hormone …: SKTNKSKSGSRSSRSRSASRSRSRSFSKSRSRSRSLSRSRKRRLSSRSRSRSYSPAHNRERNHPRVYQNRDFRGHNRGYRRPYYFRGRNRGFYPWGQYNRGGYGNYRSNWQNYRQAYSPRRGRSRSRSPKRRSPSPRSRSHSRNSDKSSSDRSRRSSSSRSSSNHSRVESSKRKSAKEKKSSSKDSRPSQAAGDNQGDEAKEQTFSGGTSQDTKASESSKPWPDATYGTGSASRASAVSELSPRERSPALKSPLQSVVVRRRSPRPSPVPKPSPPLSSTSQMGSTLPSGAGYQSGTHQGQFDHGSGSLSPSKKSPVGKSPPSTGSTYGSSQKEESAASGGAAYTKRYLEEQKTENGKDKEQKQTNTDKEKIKEKGSFSDTGLGDGKMKSDSFAPKTDSEKPFRGSQSPKRYKLRDDFEKKMADFHKEEMDDQDKDKAKGRKESEFDDEPKFMSKVIGANKNQEEEKSGKWEGLVYAPPGKEKQRKTEELEEESFPERSKKEDRGKRSEGGHRGFVPEKNFRVTAYKAVQEKSSSPPPRKTSESRDKLGAKGDFPTGKSSFSITREAQVNVRMDSFDEDLARPSGLLAQERKLCRDLVHSNKKEQEFRSIFQHIQSAQSQRSPSELFAQHIVTIVHHVKEHHFGSSGMTLHERFTKYLKRGTEQEAAKNKKSPEIHRRIDISPSTFRKHGLAHDEMKSPREPGYKAEGKYKDDPVDLRLDIERRKKHKERDLKRGKSRESVDSRDSSHSRERSAEKTEKTHKGSKKQKKHRRARDRSRSSSSSSQSSHSYKAEEYTEETEEREESTTGFDKSRLGTKDFVGPSERGGGRARGTFQFRARGRGWGRGNYSGNNNNNSNNDFQKRNREEEWDPEYTPKSKKYYLHDDREGEGSDKWVSRGRGRGAFPRGRGRFMFRKSSTSPKWAHDKFSGEEGEIEDDESGTENREEKDNIQPTTE
Total (total peptides) [6]: 45 | Unique (unique peptides) [6]: 22 | Total: 3 | Unique: 1 | Total (peptides) [7]: 1 | Unique (peptides) [7]: 1
